Measurements: article PMC7052884
Results are given in words; binding and its absence hold for the method and conditions named. In cells and extracts the contact can be indirect. Some entries that bind do so weakly or less than the wild type. Tags and fused reporters may be left off the sequences shown.

Amino acid sequences for entries named in this document (tags omitted). Residues count along the entry.
UniProt P60484, residues 1-186: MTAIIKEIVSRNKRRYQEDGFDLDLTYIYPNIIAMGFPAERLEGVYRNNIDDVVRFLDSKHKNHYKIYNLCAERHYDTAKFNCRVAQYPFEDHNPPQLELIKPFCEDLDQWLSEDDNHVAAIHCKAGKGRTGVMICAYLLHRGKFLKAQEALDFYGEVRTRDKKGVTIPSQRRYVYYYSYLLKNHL

Molecular target: T1, Flag-FGD1, translated in vitro (UniProt P98174)
T1 sequence: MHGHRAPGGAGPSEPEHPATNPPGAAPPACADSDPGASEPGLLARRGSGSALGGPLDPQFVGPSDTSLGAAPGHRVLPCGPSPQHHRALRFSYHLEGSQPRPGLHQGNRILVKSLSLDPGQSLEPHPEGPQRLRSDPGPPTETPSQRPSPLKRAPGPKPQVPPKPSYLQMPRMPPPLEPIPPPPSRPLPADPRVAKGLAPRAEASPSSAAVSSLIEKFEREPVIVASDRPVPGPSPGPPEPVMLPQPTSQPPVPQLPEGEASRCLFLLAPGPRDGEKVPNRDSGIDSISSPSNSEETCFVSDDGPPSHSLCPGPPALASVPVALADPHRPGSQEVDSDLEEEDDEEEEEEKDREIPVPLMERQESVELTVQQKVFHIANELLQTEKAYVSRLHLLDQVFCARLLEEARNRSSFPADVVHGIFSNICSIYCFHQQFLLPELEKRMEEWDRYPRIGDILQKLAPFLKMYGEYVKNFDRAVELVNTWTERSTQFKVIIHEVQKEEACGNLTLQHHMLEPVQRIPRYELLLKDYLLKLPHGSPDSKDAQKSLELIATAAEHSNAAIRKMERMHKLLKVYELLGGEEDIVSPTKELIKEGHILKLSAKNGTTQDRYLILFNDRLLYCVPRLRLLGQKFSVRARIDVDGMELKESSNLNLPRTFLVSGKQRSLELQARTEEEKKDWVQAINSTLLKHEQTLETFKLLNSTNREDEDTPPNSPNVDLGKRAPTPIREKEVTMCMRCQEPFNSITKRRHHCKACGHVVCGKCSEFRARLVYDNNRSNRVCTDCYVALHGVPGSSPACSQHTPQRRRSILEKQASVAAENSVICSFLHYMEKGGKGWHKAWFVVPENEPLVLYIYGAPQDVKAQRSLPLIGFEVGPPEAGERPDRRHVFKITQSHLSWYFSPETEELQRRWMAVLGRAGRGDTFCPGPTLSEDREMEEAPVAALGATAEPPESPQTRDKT
Assay: co-IP; Flag-FGD1, Myc-PTEN-N and Myc-PTEN-C translated in vitro (TNT Quick translation system), then co-immunoprecipitated

Myc-PTEN-N (amino acids 1-186), translated in vitro (from UniProt P60484 1-186) (domain or fragment)
binding: binds
